Assay results reported in paper PMC3900104.
No constants are given. Whether binding was seen depends on the method and setting. In cells and extracts the contact can be indirect. A result given as binding can be weak or reduced; the word gives no strength. Tags and fused reporters may be left off the sequences shown.

Biological target: T1, FLAG-tagged TRAK1 (trafficking-protein-Kinesin-binding-1), aa 2-953, in COS7 (human) (UniProt Q9UPV9)
T1 sequence: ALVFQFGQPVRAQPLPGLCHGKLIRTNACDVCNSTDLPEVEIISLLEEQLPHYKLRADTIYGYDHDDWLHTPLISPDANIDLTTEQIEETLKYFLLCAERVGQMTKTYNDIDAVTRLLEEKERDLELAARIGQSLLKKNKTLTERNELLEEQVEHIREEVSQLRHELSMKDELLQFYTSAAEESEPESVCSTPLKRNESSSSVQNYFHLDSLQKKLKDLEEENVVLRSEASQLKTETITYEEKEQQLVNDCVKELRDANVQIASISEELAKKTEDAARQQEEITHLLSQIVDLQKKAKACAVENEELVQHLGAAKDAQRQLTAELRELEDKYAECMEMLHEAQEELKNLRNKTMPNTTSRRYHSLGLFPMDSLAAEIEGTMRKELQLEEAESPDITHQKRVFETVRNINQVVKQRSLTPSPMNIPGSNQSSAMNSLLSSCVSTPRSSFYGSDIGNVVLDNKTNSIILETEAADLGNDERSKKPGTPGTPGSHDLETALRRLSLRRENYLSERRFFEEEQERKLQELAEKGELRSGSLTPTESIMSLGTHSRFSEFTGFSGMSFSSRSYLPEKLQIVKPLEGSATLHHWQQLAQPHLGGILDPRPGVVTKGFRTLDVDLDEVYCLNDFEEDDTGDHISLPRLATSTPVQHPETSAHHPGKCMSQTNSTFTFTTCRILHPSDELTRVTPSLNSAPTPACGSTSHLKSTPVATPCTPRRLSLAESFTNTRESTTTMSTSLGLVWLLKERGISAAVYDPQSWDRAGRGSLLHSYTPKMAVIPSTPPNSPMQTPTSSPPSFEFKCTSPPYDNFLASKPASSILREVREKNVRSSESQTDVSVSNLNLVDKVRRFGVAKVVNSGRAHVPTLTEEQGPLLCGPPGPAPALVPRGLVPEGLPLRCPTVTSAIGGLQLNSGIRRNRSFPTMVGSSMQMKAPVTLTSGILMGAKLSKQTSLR
Assay: co-IP; IP of FLAG-TRAK1 from transfected cells with or without Myc-DISC1 or Myc-DISC1-37W; endogenous alpha-tubulin and Kinesin-1 detected by blot; for quantification IP buffer with 0.1% SDS (Fig. S3)

Q: endogenous Kinesin-1 was tested. Which binding did it give?
A: The binding was “binds”.
